For 69 sequences, z-score results are on record in PubChem BioAssay AID1508600 (Functional Genomics Laboratory (NCATS/FGL), 2020).

Among all 53,000 sequences or so, about 3,700 (7%) were called active.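 Rule for the calls: active = gene knockdowns whose robust z-score for IL-1 alpha signal is at least 2 or at most -2, so actives lie on both sides; inactive = the rest.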 The list shows a part of the results.

The experiment can be described thus: Components of the Cytosolic LPS Sensing Pathway: Gene Identification via Genome-wide siRNA Screen.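 Note: robust z of the log signal after scaling to non-targeting control siRNA wells of the plate.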 The note with it: RAW264.7 macrophages, IL-1a HTRF, actives lie on both sides, screened at 100 nM (by protocol), cells primed 5 h with Pam3CSK4 first. In outline: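 Knockdown: 100 nM siRNA, 48h, RAW264.7. Stimulation: Pam3CSK4 5 h, then LipidA via TransIT-TKO 24 h. Output: supernatant IL-1a HTRF, negative-control-normalized, log robust z-score; viability by CellTiter-Glo.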
In the case of GGUGGCUUGAGCAGAAUCUTT against Cngb1, the z-score is inactive: -0.286. In the case of GGUUCUUGGUUUACAUAAGTT against Slc39a12, the z-score is inactive: -1.23. For GGCCUCUUUUCUGCUGCUUTT against Krt12, the z-score is inactive: -0.427. Consider GGUAGAUAACCUGAUUUAUTT against Slc7a6, for which the z-score is active: 2.22. As for GGUGAGGAGCUGGAUAACATT against Smc4, the z-score was inactive: 0.246. For GGACAGGACAGCUUUGCACTT against Poteg the value was inactive: 0.205; for GCAAUUACCAGUAUGCUACTT against Tbx19, inactive: 0.914; for GCUACUCUACUGAACAGAATT against Olfr472, inactive: 1.16. For the sequence GGCUUAAUUGCUAGCCAAGTT against Slc7a13, the z-score is inactive: 0.849. On to GGAUAUAUACCUAUUCUGATT against Utp18, for which the z-score is inactive: -0.046. To GCAGUUCGUAGUAUUUGAATT against B4galt1 belongs inactive: -0.646; to GGUGACAACUGACCUCAACTT against Oog4, inactive: -0.152; to GGCUACGCAAACAGUUUGGTT against Actn1, inactive: 1.82.

For CCAGAUCAGCAAUAUCAAATT against Lasp1, the z-score is inactive: 1.69. For CCUUCUGUUAGCCAAUAUATT against Tnmd the value was inactive: 0.707; for GGUGUUGGUUGAGAACUUCTT against Tbxas1, inactive: -0.551; for GGGCUUCUUUGACCUCAUCTT against Kdelr1, active: -2.71. For GGUACUUUACACUGAACAATT against Serpinb13, the z-score is active: 2.91. For GGGAGUAUUACCUCCUUCATT against Igbp1b the value was inactive: 0.00303. Consider GGAACAAAUGGACGAUCUGTT against Eif2d, for which the z-score was inactive: 0.205. As for GGAAAAUCCAGAGGUACGUTT against Kcnj6, the z-score was inactive: 0.409. For GCACCGAGUGGAAUAAUCATT against Lrp12, the z-score is active: 3.44. Consider GGUUUUGGUUUUGUGGAAUTT against Srsf5, for which the z-score was inactive: 1.45. With GCAGGAACACUGGUUUGAATT against Otud5, the z-score is inactive: -0.653.

As for GGAAAAGAAAAAGUUGGGCTT against Rbm42, the z-score was inactive: 0.313. CUUCUGAAUCCAGUGCCCATT against Tmem199: the z-score was inactive: 0.77. For GGACUAUUAGAUUCCAGCATT against Wnt6, the z-score is inactive: -0.311. For GGAAAGUGCCCUCCACACUTT against Lgi4 the value was inactive: 0.0864; for GGGAACUUAACCUAGGCGUTT against Pdx1, inactive: 0.611. As for UGGAAGCCUUAUGCCGUCUTT against Gpr31b, the z-score is inactive: 0.895.

As for GGAAAAGGAGAUAUCCAGCTT against Bag5, the z-score is inactive: 1.22. For GCUUGUCUACUUCCUAGAUTT against Rnpep the value was inactive: 0.442; for GGCUCGGUACUUAAAGGAUTT against Trmt6, inactive: 0.538; for GGAAUUCAUCUGUUAGAUUTT against Tti2, inactive: -1.4. Turning to GCACUACCAAGGCGAUAACTT against Tspan18, the z-score was inactive: -0.624. For the sequence GGGCUGAAAAAGGAACUGCTT against Ccdc163, the z-score was inactive: 0.245. With GCUACAGGUUUUAUCUCUUTT against Myl10, the z-score is inactive: 0.531.

For GGAAACAUCUUGUUGCUUUTT against Chkb, the z-score was inactive: -0.489.

In the case of GGAAACAGAGACUGAAUUUTT against Cc2d2a, the z-score is inactive: 1.77. Turning to GCCUUUUACUACCAUCCCGTT against Rbfox2, the z-score was inactive: -1.35. GGAUCAAGUCUACAGCUAGTT against Olfr225: the z-score is inactive: -0.802. For GCUAGUUUGGACCAUACGGTT against Ehhadh, the z-score is inactive: 0.0291.

Regarding GGUUGUCUAUGAUUCAGGGTT against Creb3l4, the z-score was inactive: -0.129. In the case of CCGGCUUCACCGAAUACUUTT against Tmem145, the z-score was inactive: -0.426.

Take GCUUACUGACUUUGGAUGCTT against Mrgpra4: the z-score is inactive: 0.89. Consider GCCUGAUGCCUGCAUAAGUTT against Gla, for which the z-score was inactive: 0.157. GGAAUUACCAGUGAAAAAUTT against Ubtd2: the z-score is inactive: 1.95. As to GGAACUAAUGACCAUUUUCTT against Lix1, the z-score was inactive: -1.15. To “GCGAUGGUAUGUUGAAGGATT against 4930432E11Rik” belongs inactive: 0.639; to GCAAAAGUAUUUUGUGUCCTT against Aamp, inactive: 0.241. Regarding GGGAAGCUGACAAUGGAACTT against Nmb, the z-score is inactive: 0.623.

As for CGGCGGUUUAAUGAAAAUATT against Cbfa2t2, the z-score was active: -2.58. In the case of GCUGCUUCUAAACUUUGUATT against Dleu7, the z-score was inactive: 0.561. Turning to GGUGUCCAUGAAAGAGCUCTT against Dlk1, the z-score was inactive: 0.0807. GGAUGUCAACAUUCGAGAUTT against Tmem231: the z-score was inactive: 0.993.

As for GCUAACUGCCUUGGGAAGATT against Lyl1, the z-score was active: 2.57. For GGCUGACACAAGAUGGCUGTT against Ebpl the value was active: 2.41; for GCACCAGGCCAAAUGAAGUTT against Srsf12, inactive: -1.45. As for GGGCCACAAAGAAAUCAUATT against Wdr92, the z-score was inactive: 1.4. As for GGCGGUUUCAAAAGCUUCCTT against Dusp2, the z-score was inactive: -0.472.

GGCUAAGAGCCACCUAGAGTT against Ccdc124: the z-score is inactive: -1.36. CCGAGAGGUUUAAGGUCUCTT against Nsg1: the z-score was inactive: 1.18.

For GGAGAGCUGUGUUUGUAACTT against Mllt1, the z-score was inactive: 0.378. For GGAUUACGGUCACUGCCAUTT against Gabrr2 the value was inactive: 1.01. Consider GCUCCCAGAUGUGAAACAATT against Taf7l, for which the z-score is inactive: 0.224.

As for GGCUUAUGAUUUCUGAAAATT against Malt1, the z-score was inactive: -0.119.

Turning to GCACGAAUCCUUGGAGAAATT against Batf2, the z-score was inactive: -0.254.

On to GGAGGUUACAAUCCAUGAGTT against Anapc1, for which the z-score is inactive: -0.951. For GGUCUUCUCAAUAGCGAGGTT against Plce1, the z-score was inactive: -0.293.
